## Results of single-concentration screens

Amino acid sequences for entries named in this document (tags omitted). Residues count along the entry.
UniProt P9WFT3, whole entry: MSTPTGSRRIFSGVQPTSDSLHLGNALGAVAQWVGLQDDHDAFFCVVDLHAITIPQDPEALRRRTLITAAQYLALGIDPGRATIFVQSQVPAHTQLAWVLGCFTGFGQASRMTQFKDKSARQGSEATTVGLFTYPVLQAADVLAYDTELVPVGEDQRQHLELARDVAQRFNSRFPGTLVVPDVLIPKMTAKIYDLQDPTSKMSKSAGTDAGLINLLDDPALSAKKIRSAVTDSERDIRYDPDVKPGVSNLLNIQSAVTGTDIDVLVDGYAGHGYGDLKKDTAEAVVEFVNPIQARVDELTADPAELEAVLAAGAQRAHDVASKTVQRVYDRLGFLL
UniProt Q4DA54, 1-478: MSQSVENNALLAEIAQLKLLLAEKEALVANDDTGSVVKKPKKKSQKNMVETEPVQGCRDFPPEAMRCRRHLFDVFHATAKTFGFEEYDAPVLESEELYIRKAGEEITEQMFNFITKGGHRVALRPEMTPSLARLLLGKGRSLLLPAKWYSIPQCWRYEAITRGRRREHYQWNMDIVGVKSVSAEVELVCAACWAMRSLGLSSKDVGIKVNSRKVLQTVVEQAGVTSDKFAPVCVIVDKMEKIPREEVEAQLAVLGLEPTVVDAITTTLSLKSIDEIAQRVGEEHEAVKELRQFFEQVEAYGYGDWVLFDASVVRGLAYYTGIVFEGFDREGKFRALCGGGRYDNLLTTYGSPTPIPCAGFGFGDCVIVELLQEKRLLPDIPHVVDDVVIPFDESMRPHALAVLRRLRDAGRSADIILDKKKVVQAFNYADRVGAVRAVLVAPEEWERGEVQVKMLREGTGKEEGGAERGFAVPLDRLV
UniProt Q8IDJ8, 1-583: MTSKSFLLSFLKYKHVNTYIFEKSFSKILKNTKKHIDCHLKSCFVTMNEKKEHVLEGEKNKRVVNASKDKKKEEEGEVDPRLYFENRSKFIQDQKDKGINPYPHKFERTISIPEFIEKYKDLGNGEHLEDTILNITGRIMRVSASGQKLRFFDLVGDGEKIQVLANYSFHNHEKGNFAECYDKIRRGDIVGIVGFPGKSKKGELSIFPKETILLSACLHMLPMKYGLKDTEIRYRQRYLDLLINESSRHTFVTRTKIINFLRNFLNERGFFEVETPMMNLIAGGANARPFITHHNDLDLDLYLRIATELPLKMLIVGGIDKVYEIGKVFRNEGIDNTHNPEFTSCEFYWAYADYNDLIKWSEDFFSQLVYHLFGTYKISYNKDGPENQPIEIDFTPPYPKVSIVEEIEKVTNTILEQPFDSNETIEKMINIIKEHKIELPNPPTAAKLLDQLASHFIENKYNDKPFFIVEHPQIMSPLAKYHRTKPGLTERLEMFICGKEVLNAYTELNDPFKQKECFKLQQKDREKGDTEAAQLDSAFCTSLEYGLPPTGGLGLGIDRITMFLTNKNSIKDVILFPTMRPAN
UniProt P9WNZ1, whole entry: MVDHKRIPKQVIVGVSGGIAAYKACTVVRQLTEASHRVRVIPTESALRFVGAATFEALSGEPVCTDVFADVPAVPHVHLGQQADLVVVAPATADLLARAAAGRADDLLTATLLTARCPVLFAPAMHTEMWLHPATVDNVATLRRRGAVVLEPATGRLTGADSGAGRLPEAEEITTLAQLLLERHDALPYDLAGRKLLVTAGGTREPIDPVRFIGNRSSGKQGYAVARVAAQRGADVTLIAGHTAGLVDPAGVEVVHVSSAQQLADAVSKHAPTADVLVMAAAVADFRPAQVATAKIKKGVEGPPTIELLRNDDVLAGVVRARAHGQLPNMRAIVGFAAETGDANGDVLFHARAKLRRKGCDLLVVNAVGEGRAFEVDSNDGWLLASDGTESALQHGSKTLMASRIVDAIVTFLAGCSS
UniProt I6X8D2, whole entry: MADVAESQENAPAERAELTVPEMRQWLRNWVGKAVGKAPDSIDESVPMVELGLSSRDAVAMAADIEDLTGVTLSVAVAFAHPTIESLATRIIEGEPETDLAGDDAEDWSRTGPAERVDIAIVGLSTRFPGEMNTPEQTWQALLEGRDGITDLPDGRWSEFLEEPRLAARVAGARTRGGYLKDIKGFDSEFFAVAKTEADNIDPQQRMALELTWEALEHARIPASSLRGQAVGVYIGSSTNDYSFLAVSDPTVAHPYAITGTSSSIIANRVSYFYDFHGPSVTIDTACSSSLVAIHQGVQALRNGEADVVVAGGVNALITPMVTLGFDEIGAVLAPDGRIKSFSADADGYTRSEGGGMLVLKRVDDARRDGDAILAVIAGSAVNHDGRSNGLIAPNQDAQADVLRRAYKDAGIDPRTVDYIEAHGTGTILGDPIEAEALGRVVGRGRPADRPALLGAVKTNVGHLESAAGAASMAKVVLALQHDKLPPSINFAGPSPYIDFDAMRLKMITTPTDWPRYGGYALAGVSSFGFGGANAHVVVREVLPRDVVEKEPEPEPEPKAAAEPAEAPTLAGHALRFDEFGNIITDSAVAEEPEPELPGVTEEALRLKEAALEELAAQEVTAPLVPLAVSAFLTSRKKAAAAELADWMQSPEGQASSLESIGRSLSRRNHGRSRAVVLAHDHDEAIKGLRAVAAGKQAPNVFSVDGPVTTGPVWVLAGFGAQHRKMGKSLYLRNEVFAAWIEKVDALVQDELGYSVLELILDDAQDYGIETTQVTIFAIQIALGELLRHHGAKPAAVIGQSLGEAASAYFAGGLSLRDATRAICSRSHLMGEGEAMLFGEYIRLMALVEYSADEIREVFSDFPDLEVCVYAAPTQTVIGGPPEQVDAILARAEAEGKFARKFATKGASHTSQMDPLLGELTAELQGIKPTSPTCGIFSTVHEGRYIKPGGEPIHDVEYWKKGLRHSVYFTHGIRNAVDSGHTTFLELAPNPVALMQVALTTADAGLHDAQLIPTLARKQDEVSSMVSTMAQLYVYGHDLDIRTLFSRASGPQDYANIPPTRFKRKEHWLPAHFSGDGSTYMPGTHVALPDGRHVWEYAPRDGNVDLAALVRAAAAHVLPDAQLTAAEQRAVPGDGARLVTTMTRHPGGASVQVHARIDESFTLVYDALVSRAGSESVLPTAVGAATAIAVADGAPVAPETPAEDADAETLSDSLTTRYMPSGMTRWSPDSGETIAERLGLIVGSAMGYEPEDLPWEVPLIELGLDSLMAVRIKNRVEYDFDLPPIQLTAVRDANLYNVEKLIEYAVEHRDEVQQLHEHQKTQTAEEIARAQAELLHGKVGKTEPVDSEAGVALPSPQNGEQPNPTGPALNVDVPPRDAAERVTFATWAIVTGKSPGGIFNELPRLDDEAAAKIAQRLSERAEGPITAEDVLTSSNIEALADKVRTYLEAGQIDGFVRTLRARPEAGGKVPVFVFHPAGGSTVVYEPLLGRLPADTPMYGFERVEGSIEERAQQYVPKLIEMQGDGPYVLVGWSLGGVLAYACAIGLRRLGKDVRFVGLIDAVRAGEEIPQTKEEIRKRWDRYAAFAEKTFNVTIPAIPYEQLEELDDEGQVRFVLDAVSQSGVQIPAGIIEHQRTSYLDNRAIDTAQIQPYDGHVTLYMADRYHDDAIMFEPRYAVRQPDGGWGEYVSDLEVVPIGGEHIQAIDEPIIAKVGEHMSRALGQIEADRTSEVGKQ

Results are given as percent effect. The record does not define 0% and 100%; most values in the screen are far below 50% and negative numbers occur (in some assays of this library far below -100). The compounds are a random part of those screened.

A: 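Tryptophan-tRNA ligase, Mycobacterium tuberculosis (UniProt P9WFT3). Enzyme assay of tryptophanyl-tRNA synthetase; the read-out is not stated. Tested at 10 µM. Direction is not recorded; retested compounds ran higher, which suggests that high means inhibition. Of about 65,000 compounds tested this way, about 64 (0.098%) reached 50% or more in at least one test.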
B: 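Enzyme assay of histidyl-tRNA synthetase; the read-out is not stated. Target: Histidine-tRNA ligase, Trypanosoma cruzi CL Brener (UniProt Q4DA54). Compounds at 30 µM. Direction is inferred from retests: higher values go with stronger inhibition. About 69,000 compounds were tested under these conditions; 0.045% (about 31) showed 50% or more at least once.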
C: 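Enzyme assay of the cytosolic lysyl-tRNA synthetase in 384-well plates, read by luminescence. Target: Lysine-tRNA ligase, Plasmodium falciparum 3D7 (UniProt Q8IDJ8). Concentration: 30 µM. Higher reads as stronger inhibition, judged from the few compounds that gave an IC50. Of about 69,000 compounds tested this way, about 49 (0.071%) reached 50% or more in at least one test.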
D: 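Enzyme assay of CoaBC with a phosphate dye (Biomol Green) read at 650 nm. Target: Coenzyme A biosynthesis protein CoaBC, Mycobacterium tuberculosis (UniProt P9WNZ1). Concentration: 30 µM. Higher reads as stronger inhibition, judged from the few compounds that gave an IC50. Most strong results did not repeat in a second test. Of about 67,000 compounds tested this way, about 40 (0.06%) reached 50% or more in at least one test.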
E: 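Polyketide synthase Pks13, Mycobacterium tuberculosis (UniProt I6X8D2). Enzyme assay of the thioesterase domain of polyketide synthase 13; the read-out is not stated. Concentration: 30 µM. The record gives no direction; the compounds picked for IC50 retests had high values, so higher reads as stronger inhibition. About 67,000 compounds were tested under these conditions; 0.46% (about 300) showed 50% or more at least once.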
F: 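Cell assay of Leishmania donovani living inside macrophages; the read-out is not stated. Concentration: 30 µM. Higher reads as stronger inhibition (inferred: compounds with an IC50 in retests scored well above the rest). Of about 69,000 compounds tested this way, about 1,000 (1.5%) reached 50% or more in at least one test.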

Compound: CCCNc1cc(-c2c[nH]nc2C2CCN(C(=O)C3CCC3)C2)ccn1 (stereo unspecified)
A: 6.071%
B: 2.825%
C: 1.907%
D: 9.685%
E: -7.069%
F: 53.3%

Compound: COc1cc(CNCCc2nc(C)cs2)cc2c1OCCO2.Cl
F: 9.472%

Compound: Cc1cccc(OCCCNC(=O)Cn2ccc(C)cc2=O)c1
A: 3.312%
B: 6.931%
C: 4.393%
D: 6.553%
E: -4.539%
F: 13.28%

Compound: O=C(NCCN1CCOCC1)NCc1ccccc1-n1cccn1
A: -1.487%
B: 0.5405%
C: 0.9059%
D: 4.545%
E: -18.16%
F: 13.37%

Compound: N[C@H]1CN(C(=O)c2ccccc2Oc2ccccc2)C[C@@H]1C1CC1
A: -1.592%
B: 7.729%
C: 2.483%
D: 1.615%
E: -10.72%
F: -11.2%

Compound: Cc1nnc(C(C)Nc2cccc(COCCc3ccccc3)c2)o1 (stereo unspecified)
A: 0.2649%
B: 1.807%
C: 4.182%
D: -5.244%
E: -1.12%
F: 30.39%

Compound: O=C(c1ccco1)N1CCC12CCN(c1ncc(F)cn1)CC2
A: -5.814%
B: 7.767%
C: -1.058%
D: 4.247%
E: -13.79%
F: -3.563%

Compound: O=C(O)C(F)(F)F.O=C(O)C(F)(F)F.O=C1N(c2cncnc2)CCC12CCCN(Cc1cccnc1)C2 (stereo unspecified)
F: 15.55%

Compound: O=S1(=O)CCC(S(=O)(=O)c2cccc(S(=O)(=O)N3CCCCCC3)c2)C1 (stereo unspecified)
A: -0.6431%
B: 5.941%
C: 0.2944%
D: -1.094%
E: 0.9371%
F: -29.31%

Compound: c1cc(-c2nnc([C@H]3CCN(C4CCCCC4)C3)o2)ccn1
A: -5.994%
B: 1.087%
C: 6.129%
D: 11.26%
E: -12.47%
F: 18.76%

Compound: CCc1nc(C2CCCN2C(=O)CCc2nc(C(C)(C)C)no2)no1 (stereo unspecified)
A: 21.64%
B: 0%
C: -1.479%
D: 3.193%
F: -13.6%

Compound: Cc1nn(C)c2nc(N(Cc3ccncc3)CC3CCCO3)sc12 (stereo unspecified)
A: -1.37%
B: 6.329%
C: 1.544%
D: 3.606%
E: -5.631%
F: 3.448%

Compound: Cc1ccccc1-n1ncc2c(=O)n(CCN3CCCCC3)cnc21
A: -1.188%
B: 12.02%
C: -4.542%
D: 0.8906%
E: 0.6338%
F: 10.24%

Compound: CCS(=O)(=O)N1C[C@@H](c2ccccc2)[C@@]2(CCNC2=O)C1
B: 4.233%
C: 3.021%
D: 2.222%
E: -12.7%
F: 42.69%

Compound: CCN(Cc1nccn1C)C(=O)c1ccc(NCc2ccc(C)o2)nc1
A: -5.644%
B: 5.797%
C: -6.247%
D: -1.615%
E: 1.613%
F: -18.48%

Compound: CC(C)NC(=O)N1CCOC2(CCCNC2)C1 (stereo unspecified)
A: -4.608%
B: 6.796%
C: -0.9407%
D: 0.5089%
E: -8.09%
F: -3.002%

Compound: Cn1cc(N2C[C@@H]3CN(S(=O)(=O)C4CC4)C[C@@H]3C2=O)cn1
A: -1.187%
B: 8.861%
C: 10.69%
E: -27.14%

Some entries from above, unchanged:

Compound,A,B,C,D,E,F
O=S1(=O)CCC(S(=O)(=O)c2cccc(S(=O)(=O)N3CCCCCC3)c2)C1 (stereo unspecified),-0.6431%,5.941%,0.2944%,-1.094%,0.9371%,-29.31%
Cc1nnc(C(C)Nc2cccc(COCCc3ccccc3)c2)o1 (stereo unspecified),0.2649%,1.807%,4.182%,-5.244%,-1.12%,30.39%

From ChEMBL document CHEMBL3988442, “University of Dundee, Small-Polar-MMV Screening Library” (2021).